## Primary screen of a compound library

Each number is a percent effect as filed.
The record does not define 0% and 100%; most values in the screen are far below 50% and negative numbers occur (in some assays of this library far below -100).
Compounds were drawn at random from those tested, without regard to their results.

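Whole-cell assay for inhibitors of Mycobacterium tuberculosis growth, labelled Cornell in the record; the read-out is not stated. The concentration is filed as 10 mM, unlikely as a test dose, so the dose is not known. Higher means stronger inhibition (inferred from two other growth screens of the library). Size under these conditions: about 53,000 compounds, about 900 of them at 50% or above in at least one test.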

compound,percent effect
Cc1nc(N2CCOCC2)nc2c1COCC21CCN(CC2CC2)C1.O=C(O)C(F)(F)F (centres undefined),-16.78
COCCNc1nc(N2CCCC2)nc2nccnc12,8.911
CCc1nn(C)c(Cl)c1CN1CCN(c2ccc(Cl)nn2)CC1,-0.02364
COc1ccc(NC(C)C(=O)N2CCCC2)cn1 (centres undefined),10.81
CC1CCCCN1CCNC(=O)c1ccccc1N1CCOCC1 (centres undefined),32.8
Cc1nc2n(n1)CC(Nc1ncnc3c1CCC3)CC2 (centres undefined),24.73
CCc1ccc(CCNc2ncnc3c2CCN(C(=O)C2CC2)C3)cc1,18.98
Cc1csc2c(N3CCC(Cn4cc(C(C)(C)O)nn4)CC3)ncnc12,-7.923
Cc1ccc(C(C)NCCc2nccn2Cc2ccccc2)o1 (centres undefined),5.564
[H][C@]12CC[C@]([H])(CN(Cc3c(C)noc3C)C1)N(Cc1ccc(F)c(C)c1)C2,25.67
CC(=O)NCC1CCN(c2ccnc3ccc(Br)cc23)CC1,9.267
Cc1cc(F)ccc1-c1ccccc1CC1CNCCNC1=O.Cl (centres undefined),21.7
CN(C)C1Cc2ccccc2N(S(=O)(=O)c2ccccc2C#N)C1 (centres undefined),-0.4834
Cn1nnnc1SCC1COc2ccccc2O1 (centres undefined),9.876
Cc1cc(C(=O)N2CCOC(c3ccc(Cl)c(Cl)c3)C2)[nH]n1 (centres undefined),18.23
COc1ccc(NC(=O)N(C)Cc2ccc(Br)o2)cn1,-1.51
CC(=O)N1Cc2nccn2CC(CNC(=O)c2cccnc2)C1.O=C(O)C(F)(F)F (centres undefined),2.638
N#Cc1ccc(NCCc2n[nH]c(=O)[nH]2)cc1Cl,11.81
CCN(CC1CN(CCc2ccccn2)CCO1)c1cccnn1 (centres undefined),3.8
OC1(CN2CCCCC2)CCN(Cc2c[nH]c(CC3CCCC3)n2)C1 (centres undefined),13.92
CC1CCC(NCCCN2CCOCC2)CC1 (centres undefined),8.565
O=C(CCc1nc(-c2cccnc2)no1)NCC1CCN(C2CC2)C1 (centres undefined),-0.4929
O=C(c1cccnc1O)N1CCOC(c2ccc(Cl)cc2)C1 (centres undefined),21.75
Cc1ccc(N(CC(=O)N2CCCCC2)C(=O)C2CCCO2)cc1 (centres undefined),-43.95
COCC(=O)NC1CCN(c2cccc(OC(F)(F)F)c2)C1=O (centres undefined),-12.6
CC(C)c1noc(CN(Cc2ccccc2)C2CC2)n1,-18.55
Cc1cc(C)n(C2CCCN(C(=O)CCCc3ccccn3)C2)n1 (centres undefined),10.76
CN1CC2(CCN(C(=O)c3cccnc3)CC2)c2cccc(F)c21.Cl,7.959
O=C(O)C(F)(F)F.[H][C@@]12COC[C@]1([H])[C@H](OCc1csc(C)n1)CN2Cc1cccs1,-13.61
Cc1nccn1CCNC(=O)C1(C)CC(c2ccccc2)=NO1 (centres undefined),9.46
CNc1oc(-c2ccc(OC)c(S(=O)(=O)N3CCCC3)c2)nc1C#N,17.45
COc1c[nH]c(C(=O)Nc2nc(C(C)(C)C)cs2)cc1=O,24.18
Cc1ccc(CN2CCN(Cc3ccc4nonc4c3)CC2=O)cc1,13.03
CC(C)c1nn(C)c(Cl)c1CNCc1cccnc1N(C)C.Cl,38.84
CCc1ncc2c(n1)CN(Cc1nc(-c3ccsc3)oc1C)CC2,0.7827
CN(C)[C@@H]1CN(C(=O)c2ccc3ccccc3n2)C[C@H]1O,24.72
CS(=O)(=O)N1CCC[C@H]1c1ncnn1-c1ccc2c(c1)OCO2,10.11
CCOc1ccccc1-n1c(C2CC(=O)N(C)C2)n[nH]c1=O (centres undefined),-16.7
O=C(NCCCN1CCOCC1)c1ccnc(OCc2ccccc2)c1,-13.7
N#Cc1ccccc1NC(=O)c1ccc2c(c1)OCO2,7.3
Cc1ccsc1C(=O)N1Cc2ncn(C)c2C(COCC2CC2)C1.O=C(O)C(F)(F)F (centres undefined),14.68
[H][C@]1([C@H](O)c2ccc(NC(=O)c3ccccc3OC)cc2)COCC(=O)N1,5.291
CC(=O)c1cccc(NC(=O)N(CCO)C2CCc3ccccc32)c1 (centres undefined),-12.88
CCNC(=O)[C@@H]1C[C@@H](NC(=O)c2cc(C)on2)CN1Cc1ccccn1,-5.653
O=C(c1ccc(F)cc1F)N(CC(F)(F)F)C1CCOCC1,37.88
Cc1nn(C)c(C)c1C1CCCN1c1ncnc2sccc12 (centres undefined),19.96
CCN(CCc1nc2cc(C)ccc2[nH]1)C(=O)COC,-0.5062
Cc1ncsc1C(=O)Nc1cccc(OCC(F)F)n1,11.18
O=C(COCC1CC1)Nc1cc(S(=O)(=O)NC2CC2)ccc1F,19.95
Cc1cc(C(=O)N2CCN(c3ncc4c(n3)CCOC4)CC2)sc1C,45.6
CC(C)n1cnc2c1C(C(=O)NCCO)N(Cc1ccccc1)CC2.O=C(O)C(F)(F)F (centres undefined),15.05
O=C(NCC1(O)COCCN(Cc2ccc(O)cc2)C1)c1cnccn1 (centres undefined),4.139
COc1ccc(CCN2CC(n3nc(C)cc3C)C2)cc1,2.439
CS(=O)(=O)c1cccc(S(=O)(=O)NC(=O)CCC2CCCCC2)c1,43.65
Cn1cc(CN2CCCC3(CCN(Cc4cccnc4)C3=O)C2)cn1 (centres undefined),-7.615
Cc1nccn1-c1ccc(NC(=O)C2CCCN2Cc2ccoc2)cc1 (centres undefined),22.05
NC(=O)c1cc(NC(=O)N2CCOCC2)ccc1F,-14.27
CCNc1nc(-c2cccnc2)c(-c2ccnc(N3CCOCC3)n2)s1,-84.96
COCCNS(=O)(=O)c1cccc2c1CN(C(=O)c1cc(C)on1)CC2,-47.14
O=C(O)C(F)(F)F.[H][C@@]12CN(Cc3cnn(C)c3)CCO[C@]1([H])CN(S(=O)(=O)CC)C2,14.53
CN(C)S(=O)(=O)c1ccc(CNC(=O)C2CC2)cc1,-8.053
CN(C)[C@@H]1CCN(C(=O)c2ccccn2)[C@H]1Cc1cnn(C)c1,0.8799
Cc1n[nH]c(C)c1C1CCCN1C(=O)c1coc(Br)c1 (centres undefined),-9.021
Cn1nc(C(=O)N2CC(Oc3nc4c(Cl)cccc4s3)C2)ccc1=O,45.21
CC(=O)N[C@@H]1CN(Cc2cccs2)C[C@H]1c1ccc(C)o1,10.2
CC(=O)NCc1nnc2n1CCN(c1ncnc3c(C)csc13)CC2,-32.34
COc1cc(CN2CCCC2)ccc1Oc1ncccc1C(F)(F)F,-17.03
O=C(O)C(c1ccc2c(c1)OCCO2)N1CCC(N2CCOCC2)CC1 (centres undefined),-7.035
CN(C)CCCC(=O)NC1CC(C)(C)Cc2nc(C(C)(C)C)ncc21 (centres undefined),-17.85
O=C(N[C@@H]1CCNC[C@H]1O)c1ccccc1OC(F)(F)C(F)F,27.11
Cc1nnc(NCc2ccccc2Cl)c(C#N)c1C,22.29
CS(=O)(=O)N1CCC(C(=O)NC(Cc2ccsc2)c2nccs2)CC1 (centres undefined),-40.39
O=C(NCCNc1ncccn1)NCCSC(F)(F)F,3.754
O=C(Cc1ccsc1)N1CCC(c2ccncc2)CC1,3.718
CN(CCC#N)C(=O)CN1CCCN(Cc2noc(C3CC3)n2)CC1,13.96
COc1ccc(Br)c(C(=O)NCC2CCN(S(=O)(=O)C3CC3)CC2)c1,-16.89
Cc1cc(C)n(C2CN(CC(=O)NC3CCS(=O)(=O)C3)C2)n1 (centres undefined),-0.08127
CC(=O)NC1CCCN(Cc2ccc(OCc3ccccn3)cc2)C1 (centres undefined),-14.75
Cc1nn(C)c(C)c1C(C)NC(=O)c1cc(CN2CCC(O)CC2)on1 (centres undefined),24.09
O=C(CN1CCCC(CO)C1)NCCOc1cccc(Cl)c1 (centres undefined),10.52
CCn1ccnc1CN1CCCN(CC2CC2)C(C(C)C)C1 (centres undefined),17.07
COc1cccc(N2CC3(CCN(c4cnccn4)C3)CC2=O)c1 (centres undefined),13.07
CCOc1ccccc1Nc1nc2c(C)nn(C)c2c(=O)n1C,-58.43
CS(=O)(=O)NCc1ncn2c1CN(C(=O)C1CCCO1)CCC2 (centres undefined),5.323
CC(C)c1ccc(CC2(C)Cc3cc(CC(=O)O)ccc3O2)cc1 (centres undefined),-28.55
CC(c1nccs1)N(C)S(=O)(=O)NCc1ccccc1 (centres undefined),-14.93
Cc1nnc(CN(C)C(=O)C(CC(C)C)N2CCCCC2=O)n1C (centres undefined),13.83
O=C1CCCC2=C1C(c1cccc(F)c1F)Nc1nonc1N2 (centres undefined),34.26

The values are deposited in ChEMBL (CHEMBL3988442, “University of Dundee, Small-Polar-MMV Screening Library” (2021)).